Results reported in PubChem BioAssay AID504467 (National Center for Advancing Translational Sciences (NCATS), 2011).
Screen size: about 330,000 compounds; about 7,700 (2.3%) were called active. Inconclusive results, whose numbers are uncertain, are shown with a selection of clear calls. Calls come from the whole dose curve; as a rule, active = well fitted inhibition curve with a large enough effect; inconclusive = small, poorly fitted or top-dose-only effect, or effect the other way; inactive = flat fitted curve, though single readings scatter. Where the call is inconclusive, the potency comes from a doubtful curve fit.

experiment: qHTS screen for small molecules that inhibit ELG1-dependent DNA repair in human embryonic kidney (HEK293T) cells expressing luciferase-tagged ELG1; details: HEK293T ELG1-luciferase reporter, luminescence, 16 h, DNA damage induced by 5-fluorouridine; activity change, negative = inhibition: at 46.1 µM (top of the series); note: nearly all actives have a fitted effect of over 55% in size
Method in brief: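 Luminescence from the luciferase reporter, measured 30 min after ONE-Glo reagent at room temperature, was the read-out. Beforehand, 2,000 cells per well were exposed for 16 hr at 37 °C to 5-fluorouridine together with compound or vehicle.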
% is set by controls: 0 for no effect and ±100 for the full control effect; potency is the fitted concentration of half-maximal effect.

Row | SMILES | Potency | activity change, negative = inhibition
1 | COC(=O)[C@@]1(C)[C@H]2C(=O)N(Cc3ccccc3)C(=O)[C@H]2[C@H]2CN(C)C(=NC3CCCCC3)N21 | inconclusive: 25.9 µM [activator, partial curve, poor fit] | 
2 | COc1ccc(/C=N/n2c(C)nnc2C)c(OC)c1OC | inconclusive: 16.4 µM [activator, partial curve] | 
3 | O=C1CCCC(=NNC(=O)c2cc3ccccc3cc2O)C1 | inconclusive: 6.51 µM [activator, partial curve] | 
4 | CCOC(=O)N1CCN(Cc2nc3c(c(=O)n(C)c(=O)n3C)n2Cc2cccc(C)c2)CC1 | active: 18.4 µM | 
5 | O=C(CCCCn1c(=O)c2ccccc2n(CC(=O)Nc2cccc(F)c2)c1=O)NCc1ccco1 | inconclusive: 20.6 µM [inhibitor, partial curve, poor fit] | 
6 | COc1cc2c(cc1OC)C(C(=O)O)C(c1ccc(C)o1)N(C)C2=O (stereo not given) |  | inactive: -6.42%
7 | Nn1c(SCC(=O)Nc2nccs2)nnc1-c1ccccn1 |  | inactive: 13.4%
8 | Cc1ccc(NC(=O)c2ccc(S(=O)(=O)NCC3CCCO3)cc2)cc1 (stereo not given) |  | inactive: 3.24%
9 | Cn1c(CN2CCOCC2)nc2cc(NC(=O)COc3ccccc3)ccc21 | inconclusive: 25.9 µM [inhibitor, single point] | 
10 | O=C(CCNS(=O)(=O)c1ccc(OC(F)(F)F)cc1)N1CCN(C/C=C/c2ccccc2)CC1 |  | inactive: -19.7%
11 | CC(=O)Nc1c(O)c2ccccc2[nH]c1=O |  | inactive: 5.51%
12 | Cc1cc(C)c(S(=O)(=O)N2CCN(C(=O)c3cc(=O)[nH]c4ccccc34)CC2)c(C)c1 | inconclusive: 16.4 µM [inhibitor, partial curve, poor fit] | 
13 | Clc1ccc(-c2nc(NCCN3CCOCC3)c3ccccc3n2)cc1 |  | inactive: -24.1%
14 | O=C1c2c(Br)c(Br)c(Br)c(Br)c2C(=O)N1c1ccccn1 |  | inactive: -5.43%
15 | CCN(C(=O)COC(=O)CSc1ccc(F)cc1)c1c(N)n(Cc2ccccc2)c(=O)[nH]c1=O |  | inactive: 17.9%
16 | COc1ccc(Nc2nc(-c3ccncc3)nc3ccccc23)cc1 | active: 2.91 µM | 
17 | O=C(Cn1c(=O)sc2ccccc21)NCc1ccco1 | inconclusive: 31.6 µM [activator, single point] | 
18 | Cc1cnn(-c2nc(-c3cccs3)cc(C(F)(F)F)n2)c1 | inconclusive: 29.1 µM [inhibitor, single point] | 
19 | CC(=O)Nc1ccc(N/C(N)=N/c2nc(C)cc(C)n2)cc1 |  | inactive: 16.8%
20 | CCOC(=O)/C(C(N)=NCc1ccco1)=C(/O)c1ccccc1 | inconclusive: 16.4 µM [inhibitor, partial curve, poor fit] | 
21 | Cc1ccc(C(C)C)c(OC(=O)/C=C/c2ccccc2)c1 |  | inactive: 7.55%
22 | Cc1ccc(C)c(C(=O)COC(=O)c2cc(Cl)nc3ccccc23)c1 | inconclusive: 29.1 µM [activator, single point] | 
23 | COc1cc(/C=N/Nc2nc3ccccc3[nH]2)cc(Br)c1OCC(=O)N(C)C | inconclusive: 20.6 µM [inhibitor, single point] | 
24 | C=CCC1(NCc2ccco2)CCN(CC)CC1 |  | inactive: 2.6%

Some of the entries so far, in markdown:

| Row | SMILES | Potency | activity change, negative = inhibition |
| --- | --- | --- | --- |
| 4 | CCOC(=O)N1CCN(Cc2nc3c(c(=O)n(C)c(=O)n3C)n2Cc2cccc(C)c2)CC1 | active: 18.4 µM |  |
| 9 | Cn1c(CN2CCOCC2)nc2cc(NC(=O)COc3ccccc3)ccc21 | inconclusive: 25.9 µM [inhibitor, single point] |  |
| 16 | COc1ccc(Nc2nc(-c3ccncc3)nc3ccccc23)cc1 | active: 2.91 µM |  |
| 21 | Cc1ccc(C(C)C)c(OC(=O)/C=C/c2ccccc2)c1 |  | inactive: 7.55% |

(list continues)

Row | SMILES | Potency | activity change, negative = inhibition
25 | CN=c1scc(C)n1/N=C/c1ccc(O)c(O)c1O | inconclusive: 25.9 µM [inhibitor, single point] | 
26 | COc1ccc(NS(=O)(=O)c2cccc(NC(=O)COc3ccccc3[N+](=O)[O-])c2)cc1 | inconclusive: 20.6 µM [inhibitor, partial curve] | 
27 | CCc1ccc(-c2cc3c(=O)n(CC(=O)NCCCN4CCC(Cc5ccccc5)CC4)nc(C)n3n2)cc1 | inconclusive: 29.1 µM [activator, partial curve, poor fit] | 
28 | O=C(Nc1ccc(Br)cc1)N1CCc2ccccc2C1 | inconclusive: 3.26 µM [activator, partial curve, poor fit] | 
29 | C=CCn1c(SCC(=O)N2CCOCC2)nnc1C(C)NC(=O)c1ccccc1 (stereo not given) |  | inactive: 15.4%
30 | CCOc1ccc2c(c1)c(N=Nc1cccc(C(=O)O)c1)c(O)n2C | inconclusive: 18.4 µM [activator, partial curve] | 
31 | CCCCn1c(SCc2ccccn2)nc2c1c(=O)n(C)c(=O)n2C | inconclusive: 20.6 µM [inhibitor, partial curve, poor fit] | 
32 | Clc1ccc(Cl)c(-c2nc(-c3ccncc3)no2)c1 | inconclusive: 11.6 µM [activator, partial curve, poor fit] | 
33 | Cc1csc(SCCN2C(=O)c3ccccc3C2=O)n1 | inconclusive: 15.8 µM [activator, partial curve, poor fit] | 
34 | CCN1CCN(S(=O)(=O)c2ccc(Cl)c(C(=O)N(C)Cc3ccc(Cl)cc3Cl)c2)CC1 | inconclusive: 23.1 µM [inhibitor, single point] | 
35 | OCCC1CN(Cc2cnn(-c3ccc(F)cc3)c2)CCN1Cc1ccsc1 (stereo not given) | inconclusive: 25.9 µM [inhibitor, partial curve, poor fit] | 
36 | C=CCNc1nc(C(=O)OCC(=O)Nc2cc(S(C)(=O)=O)ccc2Cl)cs1 | inconclusive: 14.6 µM [inhibitor, partial curve, poor fit] | 
37 | O=C(CN1CCOCC1)Nc1ccccc1F |  | inactive: -12.8%
38 | CC(C)Oc1ccc(C(=O)NC(Cc2c[nH]c3ccccc23)C(=O)NN)cc1 (stereo not given) |  | inactive: 0%
39 | CC(=O)c1ccc(N2CCN(C(=O)COc3ccccc3F)CC2)c(F)c1 |  | inactive: -1.26%
40 | O=C(Nc1ccccc1)c1cccc(C(F)(F)F)c1 | inconclusive: 13 µM [activator, partial curve] | 
41 | COc1ccc(Nc2c3c(nc4ccccc24)CCC3)c(OC)c1 | inconclusive: 16.4 µM [inhibitor, partial curve] | 
42 | C=CCN1CCN(c2ccncc2S(=O)(=O)N2CCOCC2)CC1 | inconclusive: 29.1 µM [activator, single point] | 
43 | NC(=O)CCCc1nc(-c2ccccc2Cl)no1 |  | inconclusive: 313% [activator]
44 | CCOC(=O)N1CCc2c(sc(NC(=O)Cc3ccccc3)c2C(=O)c2ccc(OC)cc2)C1 | inconclusive: 14.6 µM [inhibitor, partial curve, poor fit] | 
45 | COc1ccc(C2CC(c3cccs3)=NN2C(=O)CCl)cc1OC (stereo not given) | inconclusive: 14.6 µM [inhibitor, partial curve] | 
46 | CC(=O)c1c(Nc2ccccc2)sc(C(=O)c2ccccc2)c1C | inconclusive: 23.1 µM [inhibitor, partial curve, poor fit] | 
47 | Cc1cccc(NC(=S)NCCCN2CCOCC2)c1 |  | inactive: -2.91%
48 | COc1ccc(N=Cc2cc3c(cc2O)OC(N)=C(C#N)C3c2ccccc2)cc1 (stereo not given) | inconclusive: 6.51 µM [inhibitor, single point] | 

Row | SMILES | Potency | activity change, negative = inhibition
49 | CCOc1ccc(C(=O)CSc2nnc(N)s2)cc1 | inconclusive: 16.4 µM [activator, partial curve] | 
50 | N=C1S/C(=C\c2cccc3ccccc23)C(=O)N1c1ccc(F)cc1 |  | inactive: -22.2%
51 | COc1ccc(N/C=C/C(=O)c2ccc(OC)c(OC)c2)cc1 | inconclusive: 18.3 µM [activator, single point] | 
52 | CC(C)CC(=O)Nc1ccc(C(=O)CN2CCN(c3ccc(O)cc3)CC2)cc1 | inconclusive: 6.51 µM [inhibitor, single point] | 
53 | O=C(CSCc1ccc(Cl)cc1)N/N=C/c1ccc(OCC(=O)Nc2ccccc2)cc1 | inconclusive: 29.1 µM [inhibitor, single point] | 
54 | CCCCn1c(N)c(N(CC(C)C)C(=O)C2CCN(c3ncnc4sc(C)c(C)c34)CC2)c(=O)[nH]c1=O | inconclusive: 16.4 µM [inhibitor, partial curve, poor fit] | 
55 | COc1ccc(-c2csc(COC(=O)C(C)(C)C)n2)cc1 | inconclusive: 23.1 µM [activator, single point] | 
56 | COc1ccc(-n2c(C)cc(/C=N/Nc3nc(N4CCOCC4)nc(N4CCOCC4)n3)c2C)cc1 | active: 8.2 µM | 
57 | Cc1ccc(C(=O)N2CCCC(C(F)(F)F)C2)cc1S(=O)(=O)N1CCOCC1 (stereo not given) |  | inactive: 0%
58 | CCC(C)NC(=O)c1ccc(NC(=O)CC2SC(N3CCCCC3)=NC2=O)cc1 (stereo not given) |  | inactive: 12.6%
59 | Cc1c2cnn(CC(=O)NC3CCCC3)c(=O)c2c(C)n1Cc1ccccc1 | inconclusive: 23.1 µM [activator, partial curve] | 
60 | CCC(=O)NC1=C(Cl)C(=O)C(NC(=O)CC)=C(Cl)C1=O |  | inactive: -8.96%
61 | N#Cc1c(N)oc(-c2ccccc2)c1-c1ccccc1 |  | inactive: -4.11%
62 | Cc1ccc(C(=O)CC2(O)C(=O)N(CCc3ccccc3)c3ccc(Br)cc32)o1 (stereo not given) |  | inactive: -19.7%
63 | COc1ccc(NC(=O)c2cccc(N3C(=O)C4CC=C(C)CC4C3=O)c2)c(OC)c1 (stereo not given) | inconclusive: 29.1 µM [inhibitor, partial curve, poor fit] | 
64 | CCCOc1ccccc1OCC(=O)Nc1ccc(S(=O)(=O)N2CCCCC2)cc1 | inconclusive: 29.1 µM [inhibitor, single point] | 
65 | O=C(NCCc1ccccc1C(F)(F)F)C1CCC(=O)N(CCCN2CCCC2=O)C1 (stereo not given) |  | inactive: 3.86%
66 | CCCC1NC(=S)N(C2CCCCC2)C1=O (stereo not given) |  | inactive: 15.9%
67 | CCC(c1nnnn1C1CCCC1)N1CCC(C(N)=O)CC1 (stereo not given) |  | inactive: 4.3%
68 | O=C(Cn1cc(SCc2cccc(Cl)c2)c2ccccc21)N1CCOCC1 | inconclusive: 20.6 µM [activator, single point] | 
69 | CCc1ccccc1-n1c(-c2ccncc2)n[nH]c1=S | inconclusive: 0.58 µM [activator, partial curve] | 
70 | CCN(c1ccccc1)S(=O)(=O)c1ccc(Cl)c(NC(=O)CSc2n[nH]c(N)n2)c1 | inconclusive: 7.31 µM [inhibitor, partial curve, poor fit] | 
